Data taken from patent US20220235138A1, “CAR-T CELLS TARGETING IL-1RAP AND THEIR USE IN ACUTE MYELOID LEUKEMIA (AML)” (ETABLISSEMENT FRANCAIS DU SANG, priority 2019, published 2022).
No constants are given. Whether binding was seen depends on the method and setting. Some results given as binding are weak or reduced against the parent protein; the word gives no strength.

Protein sequences, listed by entry. Tags and fused reporters are not part of them. Residues count along the entry.
UniProt Q9NPH3, residues 21-359: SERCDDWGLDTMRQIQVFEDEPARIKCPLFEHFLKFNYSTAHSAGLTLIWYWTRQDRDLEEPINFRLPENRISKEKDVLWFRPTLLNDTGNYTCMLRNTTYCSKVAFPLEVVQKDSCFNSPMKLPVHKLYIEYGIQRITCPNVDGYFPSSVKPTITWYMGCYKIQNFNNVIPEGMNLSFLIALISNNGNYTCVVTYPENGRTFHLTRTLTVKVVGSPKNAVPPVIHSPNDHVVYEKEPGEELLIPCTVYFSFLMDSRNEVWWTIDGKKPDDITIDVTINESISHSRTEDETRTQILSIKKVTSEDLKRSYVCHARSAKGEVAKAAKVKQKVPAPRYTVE

What was measured:
[1] = target: IL-1RAP recombinant protein (ELISA) (UniProt Q9NPH3); experiment: ELISA; BSA as negative control
[2] = target: IL-1RAP recombinant protein (ELISA) (UniProt Q9NPH3); experiment: sandwich ELISA: coated anti-human Fc antibody, IL-1RAP protein, #E3C3, anti-mouse Fc-HRP

- binding [1]: binds
- binding [2]: binds
B1: mouse anti-hIL-1RAP monoclonal antibody, clone #E3C3 (antibody, V domains shown)
VH: QVQLQQPGAELMMPGASVKVSCEASGYTFTDSWMHWVKQRPGQGLEWIGAIDPSDSYTTYNQKFTGKATLSVDESSNTAYMQLSSLTSEDSAVYYCARYYSGSNYISPFPYWGQGTLVTVSA
VL: DIVMTQSHKFMSTSVGDRVTITCKASLDVSTAVAWYQQKPGQSPKLLIYSASYRYTGVPDRFTGSGSGTDFTFTISSVQAEDLAVYYCQQHYSPPFTFGSGTNLEIK
